# According to PubChem BioAssay AID1347423 (Functional Genomics Laboratory (NCATS/FGL), 2020):
# The whole screen tested about 52,000 sequences, of which about 210 (0.4%) were called active.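 How the source made its calls: active means gene whose silencing raises cell survival under the drug, median off-target-corrected z-score across its silencing RNAs 2 or more; inactive means the rest.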 This is one part of the list.
# Experiment: Resistance to Poly (ADP-Ribose) Polymerase inhibitor: Gene Identification via Genome-wide siRNA Screen
# Settings: mouse BRCA2 R2336H ES cells, olaparib, CellTiter-Glo viability; hits give high values
# How it was run: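 Genome-wide siRNA screen (3 siRNAs/gene, 20 nM) in mouse ES cells carrying hypomorphic BRCA2 R2336H; olaparib 500 nM added 48 h post-transfection, CellTiter-Glo viability 72 h later. Normalized to plate-median negative control; MAD z-scores, gene median, seed-adjusted.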
row,Sequence,z-score
1,GGCUGUUUUACAUCAUCCCTT against Ust,inactive: 1.9
2,GUGUACGUCUGUUAACACATT against Dad1,inactive: -0.395
3,GGCUUUCUUUUGGAAGCUCTT against Sdfr2,inactive: 0.162
4,GGACUGGUCCGAGGUAACUTT against 2700087I09Rik,inactive: -2.75
5,GCUGGUGAAUGCGACCUUUTT against Tm4sf5,inactive: -1.16
6,GCCUAAAGCUUUUCUACAATT against Mlph,inactive: -1.57
7,CAACCGUUGUGGCCAUGACTT against Olfr59,inactive: 0.752
8,GCUUGGUCGUAUAUUGUUGTT against Gm610,inactive: 0.493
9,GCAUAUGAUUGUCAUGAGUTT against Olfr319,inactive: -0.121
10,GGUGUUGCAUUCUUUCCUCTT against Dctn5,inactive: -1.1
11,GGAAAAGAAGUUCAAUGGUTT against Riok3,inactive: -0.227
12,GCCAUUACUGAUCAAUCAGTT against BC003267,inactive: 0.369
13,GAGAGGGCAUAAUGGUUUUTT against Hist1h3c,inactive: 1.01
14,GCCAUUUGAAGUGUUUAAATT against Kctd12,inactive: -0.633
15,GGGCAGAUUCCAACUCCUUTT against Cd33,inactive: -2.23
16,GGUCCCAGUGUCAUGUCUUTT against Cdipt,inactive: 0.00151
17,GGAUCUAAGUUUGAUGUCGTT against 1300012D20Rik,inactive: 0.262
18,AGGGUCAUUCUGCUAUUCCTT against Taar7d,inactive: -0.83
19,GGCUUCAAGGUGAAACUCUTT against Cryl1,inactive: 0.575
20,CGUUUCUCAGCAAACUUACTT against Il17,inactive: 0.0437
21,GCAAGGACUCUCAUGGUUGTT against 2310008M20Rik,inactive: -0.775
22,GGUUUUGACCAUAAAAGAATT against 2410003C20Rik,inactive: -0.329
23,GCUUAACUACCUUAAAGACTT against Scn3a,inactive: 0.639
24,GGCAUAAAAAGCAUAGUAGTT against Cstf2,inactive: -1.23
25,GGAUCUGAGUGCUCUACUGTT against 2410004N11Rik,inactive: -2.99
26,GAAUGGUGAUAAGAAGCAUTT against Ndufb3,inactive: -1.06

# As entered above.
# Under z-score, GGGCAGAUUCCAACUCCUUTT against Cd33 has inactive: -2.23
# Under z-score, GGCUUUCUUUUGGAAGCUCTT against Sdfr2 has inactive: 0.162

# Remaining list, next part.

row,Sequence,z-score
1,GCUAUGCGUUCAGAAGUUGTT against Ap3d1,inactive: -0.952
2,CCUGCUAGGACUAAGUUAGTT against 4930548H24Rik,inactive: -0.0644
3,GGUUUACAUCCAUUGGCAATT against Mesdc1,inactive: 0.155
4,CGCUCUUUCAGCACAAGAATT against Zfp422,inactive: -1.03
5,GGAACACAUUACCUCAAUUTT against 2610209A20Rik,inactive: -0.826
6,GCAAUUUCGGGUACUCAUATT against Tsta3,inactive: 1.11
7,GGUGUUCGUUUCAUCUACATT against Hnrph2,inactive: 0.917
8,GCAUGAUCUCAGGUGUUUGTT against Timm9,inactive: -0.323
9,GGAUUUCAGAAAGUGGCCUTT against Acad8,inactive: 1.9
10,GGUUCAGCUUUUCAUCAGUTT against Cops3,inactive: -2.39
11,GGCUGUUAUACACUAUCUGTT against Tirap,inactive: 0.654
12,GCAUUACUUUAAGCCAUAUTT against Rbl1,inactive: 1.84
13,CCGAGUCAUUCAGAGAACGTT against Plekha5,inactive: -0.413
14,GCCGUUGGAUCCCAUAUCATT against 4930455F23Rik,inactive: -0.00279
15,GAACGUGAGGCACAAAUGGTT against Rhog,inactive: 0.628
16,GUGAGACCUACCAGAUGAATT against V1rc25,inactive: 0.878
17,CGGAAAUCGUUGCUAAUCUTT against Fcgrt,inactive: 0.381
18,GCAUGUUAAGCCUUGUAUATT against Tnpo1,inactive: -0.439
19,GGCACACAAGAUUCUAGUGTT against Git2,inactive: 1.36
20,GGAUAGCAAAUUCAUCACATT against Ptprg,inactive: 1.83
21,CCUGAUUUAUGCAGAAUUATT against Ube2d3,inactive: 1.81
22,GGCUGUCGAGGAUCUAAACTT against Cyp4a14,inactive: 0.738
23,GGAAAGGUGAACACAAAUGTT against Pet112l,inactive: 1.94
24,GGACCACAACACAAAUCUGTT against Tnfsf6,inactive: 0.0621
25,GGAAGAUAUGAAGGGCUCATT against Mb,inactive: -2.67
26,GCUAGACUCCUACAGCAAUTT against Prss8,inactive: 0.0263

# Fetched one by one from above:
row,Sequence,z-score
20,GGAUAGCAAAUUCAUCACATT against Ptprg,inactive: 1.83
14,GCCGUUGGAUCCCAUAUCATT against 4930455F23Rik,inactive: -0.00279
6,GCAAUUUCGGGUACUCAUATT against Tsta3,inactive: 1.11
4,CGCUCUUUCAGCACAAGAATT against Zfp422,inactive: -1.03

# (listing goes on)

row,Sequence,z-score
1,CGACAGCACUAUGCUGGGUTT against Psmb4,inactive: -0.253
2,GGCCAAUUAAUUCUUACAGTT against Srl,inactive: 0.426
3,GGAAUUCACUUCGAGGCAUTT against Npas2,inactive: 0.0687
4,GGAUCCUCUUUUGUGGGACTT against Chst4,inactive: -0.149
5,GGAAAUGACUCAUUUACAGTT against Smc1l1,inactive: -0.642
6,GGAAAGAGAUUCUCUUCUATT against D13Wsu123e,inactive: 0.35
7,GCUUCUACCUACGCAAUAATT against Nox4,inactive: -2.05
8,GCCAGUUAUCACUUAACCCTT against 2010110K16Rik,inactive: 0.362
9,GGAUCAUUCCUUUGGUUAGTT against Fabp5,inactive: -0.797
10,GGACAAGUGCCUCUCACCATT against Glis2,inactive: -2.65
11,GCAGUGGUAAUUCGACAACTT against Rpl23,inactive: -2.79
12,GGAACUGACUCUAAACAAATT against Slc22a6,inactive: -0.0782
13,CCCUAAGAGAGCCUAAAACTT against Serpina3c,inactive: -0.576
14,GCAGUUGACCACAGAAAAUTT against BC061237,inactive: 0.329
15,GGAGACAACCCAGAUGAACTT against 1700009P17Rik,inactive: 0.84
16,CGAGAGUCUAACCAAGUACTT against Arhgdib,inactive: 1.13
17,GGAAUCAACUGAUACUUAATT against D330038I09Rik,inactive: -0.091
18,GGGAUUCACUUCACUUAAGTT against Olfr294,inactive: 0.209
19,GGAUUUCAAAGGUGAUGAUTT against Xlr5,inactive: 1.31
20,GGCGUGUUUUUGGAGUGCCTT against AI315068,inactive: -0.172
21,GGCAGACGAAUGGUGCAAATT against Dok5,inactive: 0.532
22,CCAAAUAAUUACUAGGCCUTT against Prdx2,inactive: 1.44
23,CCAUGUGGCUGAGAGAUUGTT against Vgll2,inactive: 0.362
24,GGUCUUACUCUUCAUAAUATT against Olfr1301,inactive: 0.137
25,GGAAGAUUCUUACCUCUGATT against Rngtt,inactive: -2.38
26,CCCUUAACUCACUGCUCAATT against Edg5,inactive: -0.715

row,Sequence,z-score
1,CGCGGCAUAAACAUGUAAATT against 2010003O18Rik,inactive: 0.416
2,GGCACUUCCUCGCUAAUAUTT against Lrp12,inactive: -2.76
3,GGAUCAUUCGGACAAAAGUTT against Pax5,inactive: -0.817
4,GAUAUAAAGCCUUCAACACTT against Olfr912,inactive: 0.442
5,GGUCACACAUUUUUUGUGATT against F8,inactive: -0.351
6,GGUUCUUUCGACUUCCUGCTT against 9430093N24Rik,inactive: 0.758
7,GGAAGAUCAGCCAUACUAGTT against A630024B12Rik,inactive: -1.53
8,GGAUUUAAUACCCAGCAGCTT against Nup54,inactive: -0.456
9,CCUUGUAACUCAUUACAUCTT against 2410003P15Rik,inactive: 0.083
10,GGUGCUGAUCUACAGGAUGTT against Lrfn2,inactive: 0.28
11,CCCUUUCCAGCCAGAUCAATT against 1700016K19Rik,inactive: 0.867
12,CCCUAGUGCAGUGAUAACUTT against 1700016D06Rik,inactive: -0.645
13,GGAGUCCCAGGACAUGAAATT against Pou5f1,inactive: -0.904
14,GCUAUGAUCGAUCAAAUUCTT against MGC78289,inactive: 1.32
15,CCUCAUGGCUUUGGCCAUUTT against Olfr1133,inactive: 0.698
16,GGAUUUAGGUUUUGGUUUUTT against Ghitm,inactive: 1.19
17,GGCUUUCAAGAUUCAGUGATT against Gsta1,inactive: -0.93
18,GGAAAUCCUUGACUACAUUTT against Cyp2b19,inactive: -1.8
19,GGAUUGUCUUCCUACUGGGTT against Zdhhc4,inactive: 0.52
20,GGUGAGCGGCCAGAAGUUUTT against Elk1,inactive: -1.63
21,CGGGAGAUGCGUUUGUUUUTT against 6030458C11Rik,inactive: 0.61
22,CCUUCGAACUCGAAAAAUUTT against Olfr722,inactive: 0.346
23,GGACUAGCAAGGCAAGUGATT against Dnase2b,inactive: -1.2
24,GCCGAGAAACAUCCCAAACTT against Zfp313,inactive: 1.08
25,GGAGGUGGUGUUUAUACCATT against Scrn2,inactive: 0.616
26,GGAUUCAUGUUCCAUAUGUTT against C330018L13Rik,inactive: 1.27
